Measurements reported in PubChem BioAssay AID1508597 (Cure First, 2020)

- Test: 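Survival screen with siRNA in ovarian cancer cells derived from patients, with or without rucaparib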 (primary screen)
- System: human ovarian carcinoma lines grown from tumours: OCI-P5x (papillary serous) and OCI-C5x (clear cell)
- Reagent: siRNA pool against human genes, 1.25 pmol siRNA per well
- Timing: 72 h or 96 h, depending on the cell culture
- Challenge: rucaparib 20 µM (about IC30) or vehicle, present until read-out
- Rucaparib or vehicle: Rucaparib
- Cell line: OCI-P5x (serous)
- Measured: 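Luminescent ATP-based viability assay read 72 or 96 h after transfection, depending on culture, given as normalised percent viability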
- Scale: viability, normalised: higher = more viable cells remaining
- Call rule: 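Active when normalised viability falls below 80 percent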
- Meaning of the calls: active = viability under 80%; inactive = viability 80% or more
Shown is a random part of the about 2,100 reagents, in one setting of the screen. 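Calls flag viability under 80% in either arm, not effects specific to rucaparib; the reference for percent is not stated.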 Some reagents were tested in more than one well and are listed for each. Not given: the 100% reference.

no.	Gene	technical replicate	viability, normalised (%)	outcome
1	BRD3 (bromodomain containing 3)	1	48.8	active
2	BRD3 (bromodomain containing 3)	1	35.9	active
3	BRD3 (bromodomain containing 3)	2	66.4	active
4	BRD3 (bromodomain containing 3)	2	54.9	active
5	BRD3 (bromodomain containing 3)	3	87.2	inactive
6	BRD3 (bromodomain containing 3)	3	38.3	active
7	BRWD3 (bromodomain and WD repeat domain containing 3)	1	71.2	active
8	BRWD3 (bromodomain and WD repeat domain containing 3)	2	71.7	active
9	BRWD3 (bromodomain and WD repeat domain containing 3)	3	77.5	active
10	TESK1 (testis associated actin remodelling kinase 1)	1	71.5	active
11	TESK1 (testis associated actin remodelling kinase 1)	2	78.8	active
12	TESK1 (testis associated actin remodelling kinase 1)	3	71.1	active
13	RIOK1 (RIO kinase 1)	1	125	inactive
14	RIOK1 (RIO kinase 1)	2	115	inactive
15	RIOK1 (RIO kinase 1)	3	95.9	inactive
16	MVK (mevalonate kinase)	1	98.7	inactive
17	MVK (mevalonate kinase)	2	105	inactive
18	MVK (mevalonate kinase)	3	84.4	inactive
19	HUS1 (HUS1 checkpoint clamp component)	1	88.4	inactive
20	HUS1 (HUS1 checkpoint clamp component)	2	93.1	inactive
21	HUS1 (HUS1 checkpoint clamp component)	3	74	active
22	FBXO5 (F-box protein 5)	1	54	active
23	FBXO5 (F-box protein 5)	2	51.1	active
24	FBXO5 (F-box protein 5)	3	69.3	active
25	TJP2 (tight junction protein 2)	1	126	inactive
26	TJP2 (tight junction protein 2)	2	100	inactive
27	TJP2 (tight junction protein 2)	3	90.6	inactive
28	PLCB3 (phospholipase C beta 3)	1	77.6	active
29	PLCB3 (phospholipase C beta 3)	2	64.6	active
30	PLCB3 (phospholipase C beta 3)	3	61.5	active
31	POLR1B (RNA polymerase I subunit B)	1	41.4	active
32	POLR1B (RNA polymerase I subunit B)	2	48.5	active
33	POLR1B (RNA polymerase I subunit B)	3	47.9	active
34	PRKN (parkin RBR E3 ubiquitin protein ligase)	1	77.9	active
35	PRKN (parkin RBR E3 ubiquitin protein ligase)	2	68.2	active
36	PRKN (parkin RBR E3 ubiquitin protein ligase)	3	66.1	active
37	BAZ1A (bromodomain adjacent to zinc finger domain 1A)	1	79.2	active
38	BAZ1A (bromodomain adjacent to zinc finger domain 1A)	2	101	inactive
39	BAZ1A (bromodomain adjacent to zinc finger domain 1A)	3	83	inactive
40	PRPF19 (pre-mRNA processing factor 19)	1	42.6	active
41	PRPF19 (pre-mRNA processing factor 19)	1	34.8	active
42	PRPF19 (pre-mRNA processing factor 19)	2	52.4	active
43	PRPF19 (pre-mRNA processing factor 19)	2	38.1	active
44	PRPF19 (pre-mRNA processing factor 19)	3	52.1	active
45	PRPF19 (pre-mRNA processing factor 19)	3	52.7	active
46	NEK3 (NIMA related kinase 3)	1	73.2	active
47	NEK3 (NIMA related kinase 3)	2	63.8	active
48	NEK3 (NIMA related kinase 3)	3	65.5	active
49	IL23A (interleukin 23 subunit alpha)	1	61.6	active
50	IL23A (interleukin 23 subunit alpha)	2	61.3	active
51	IL23A (interleukin 23 subunit alpha)	3	59	active
52	WDR45B (WD repeat domain 45B)	1	80.7	inactive
53	WDR45B (WD repeat domain 45B)	2	81.9	inactive
54	WDR45B (WD repeat domain 45B)	3	73.9	active
55	MERTK (MER proto-oncogene, tyrosine kinase)	1	55.4	active
56	MERTK (MER proto-oncogene, tyrosine kinase)	2	69	active
57	MERTK (MER proto-oncogene, tyrosine kinase)	3	65.6	active
